PubChem BioAssay AID1224831 | NIAID | 2016
Screen: 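Genes that support or restrain LPS-induced TNF-alpha reporter activity in macrophage-like cells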 (follow-up of hits). Cells: human THP-1 B5 monocytic leukaemia cells carrying a TNF promoter luciferase reporter, made macrophage-like with PMA. Reagents: single siRNA against human genes, 50 nM. Time to read-out: about 68 h of knock-down, then 4 h LPS. Treatment: LPS (Salmonella minnesota, TLR-grade) at 10 ng/ml for 4 h; PMA 5 ng/ml present during knock-down. Read-out: 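Firefly to renilla luciferase ratio of a TNF promoter reporter after 4 h LPS, scaled to plate median, turned into robust z-score, averaged over replicates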. Direction: TNF reporter z-score: higher = stronger LPS-induced TNF reporter signal; z-score, median over gene's siRNAs: higher = stronger TNF reporter signal across the gene's siRNAs. Active means: 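Two-sided call: reduced or raised TNF reporter signal counts as active once mean z reaches about -1 or below, or about 1.5 or above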. Meaning of the calls: active = changed TNF reporter (either direction); inactive = little change.
In all, the deposit lists about 3,500 reagents; shown is an unselected part. 731 of them (21%) were called active. 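Active means either lowered or raised reporter signal; the gene-median score did not drive the per-siRNA calls.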 Unmarked entries are inactive.

{"target gene": "ZNF93", "PubChem SID": "SID315487125", "TNF reporter z-score, replicate mean": "-1.86 (active)", "z-score, median over gene's siRNAs": 0.465}
{"target gene": "ZNF93", "PubChem SID": "SID315487126", "TNF reporter z-score, replicate mean": 1.04, "z-score, median over gene's siRNAs": 0.465}
{"target gene": "ZNF93", "PubChem SID": "SID315487127", "TNF reporter z-score, replicate mean": 0.27, "z-score, median over gene's siRNAs": 0.465}
{"target gene": "ZNF93", "PubChem SID": "SID315487128", "TNF reporter z-score, replicate mean": 0.72, "z-score, median over gene's siRNAs": 0.465}
{"target gene": "ZNF93", "PubChem SID": "SID315487129", "TNF reporter z-score, replicate mean": 0.66, "z-score, median over gene's siRNAs": 0.465}
{"target gene": "ZNF93", "PubChem SID": "SID315487130", "TNF reporter z-score, replicate mean": 0.02, "z-score, median over gene's siRNAs": 0.465}
{"target gene": "NPAS4", "PubChem SID": "SID315488781", "TNF reporter z-score, replicate mean": 0.47, "z-score, median over gene's siRNAs": 0.705}
{"target gene": "NPAS4", "PubChem SID": "SID315488782", "TNF reporter z-score, replicate mean": 0.09, "z-score, median over gene's siRNAs": 0.705}
{"target gene": "NPAS4", "PubChem SID": "SID315488783", "TNF reporter z-score, replicate mean": 0.96, "z-score, median over gene's siRNAs": 0.705}
{"target gene": "NPAS4", "PubChem SID": "SID315488784", "TNF reporter z-score, replicate mean": "1.89 (active)", "z-score, median over gene's siRNAs": 0.705}
{"target gene": "NPAS4", "PubChem SID": "SID315488785", "TNF reporter z-score, replicate mean": 0.94, "z-score, median over gene's siRNAs": 0.705}
{"target gene": "NPAS4", "PubChem SID": "SID315488786", "TNF reporter z-score, replicate mean": -0.37, "z-score, median over gene's siRNAs": 0.705}
{"target gene": "PNPLA7", "PubChem SID": "SID315489105", "TNF reporter z-score, replicate mean": "-1.03 (active)", "z-score, median over gene's siRNAs": -0.61}
{"target gene": "PNPLA7", "PubChem SID": "SID315489106", "TNF reporter z-score, replicate mean": -0.42, "z-score, median over gene's siRNAs": -0.61}
{"target gene": "PNPLA7", "PubChem SID": "SID315489107", "TNF reporter z-score, replicate mean": "1.66 (active)", "z-score, median over gene's siRNAs": -0.61}
{"target gene": "PNPLA7", "PubChem SID": "SID315489108", "TNF reporter z-score, replicate mean": -0.8, "z-score, median over gene's siRNAs": -0.61}
{"target gene": "PNPLA7", "PubChem SID": "SID315489109", "TNF reporter z-score, replicate mean": 0.96, "z-score, median over gene's siRNAs": -0.61}
{"target gene": "PNPLA7", "PubChem SID": "SID315489110", "TNF reporter z-score, replicate mean": "-2.02 (active)", "z-score, median over gene's siRNAs": -0.61}
{"target gene": "RAPGEF5", "PubChem SID": "SID315483366", "TNF reporter z-score, replicate mean": "-1.1 (active)", "z-score, median over gene's siRNAs": -0.35}
{"target gene": "RAPGEF5", "PubChem SID": "SID315483367", "TNF reporter z-score, replicate mean": -0.63, "z-score, median over gene's siRNAs": -0.35}
{"target gene": "RAPGEF5", "PubChem SID": "SID315483368", "TNF reporter z-score, replicate mean": "-1.48 (active)", "z-score, median over gene's siRNAs": -0.35}
{"target gene": "RAPGEF5", "PubChem SID": "SID315483369", "TNF reporter z-score, replicate mean": -0.07, "z-score, median over gene's siRNAs": -0.35}
{"target gene": "RAPGEF5", "PubChem SID": "SID315483370", "TNF reporter z-score, replicate mean": 0.02, "z-score, median over gene's siRNAs": -0.35}
{"target gene": "RAPGEF5", "PubChem SID": "SID315483371", "TNF reporter z-score, replicate mean": 0.46, "z-score, median over gene's siRNAs": -0.35}
{"target gene": "TRIM56", "PubChem SID": "SID315487119", "TNF reporter z-score, replicate mean": -0.45, "z-score, median over gene's siRNAs": 0}
{"target gene": "TRIM56", "PubChem SID": "SID315487120", "TNF reporter z-score, replicate mean": "-1.72 (active)", "z-score, median over gene's siRNAs": 0}
{"target gene": "TRIM56", "PubChem SID": "SID315487121", "TNF reporter z-score, replicate mean": "3.26 (active)", "z-score, median over gene's siRNAs": 0}
{"target gene": "TRIM56", "PubChem SID": "SID315487122", "TNF reporter z-score, replicate mean": 0.45, "z-score, median over gene's siRNAs": 0}
{"target gene": "TRIM56", "PubChem SID": "SID315487123", "TNF reporter z-score, replicate mean": -0.45, "z-score, median over gene's siRNAs": 0}
{"target gene": "TRIM56", "PubChem SID": "SID315487124", "TNF reporter z-score, replicate mean": 1.36, "z-score, median over gene's siRNAs": 0}
{"target gene": "R3HDM1", "PubChem SID": "SID315485208", "TNF reporter z-score, replicate mean": 0.15, "z-score, median over gene's siRNAs": 0.08}
{"target gene": "R3HDM1", "PubChem SID": "SID315485209", "TNF reporter z-score, replicate mean": 0.6, "z-score, median over gene's siRNAs": 0.08}
{"target gene": "R3HDM1", "PubChem SID": "SID315485210", "TNF reporter z-score, replicate mean": -0.64, "z-score, median over gene's siRNAs": 0.08}
{"target gene": "R3HDM1", "PubChem SID": "SID315485211", "TNF reporter z-score, replicate mean": 0.01, "z-score, median over gene's siRNAs": 0.08}
{"target gene": "R3HDM1", "PubChem SID": "SID315485212", "TNF reporter z-score, replicate mean": -0.49, "z-score, median over gene's siRNAs": 0.08}
{"target gene": "R3HDM1", "PubChem SID": "SID315485213", "TNF reporter z-score, replicate mean": 0.75, "z-score, median over gene's siRNAs": 0.08}
{"target gene": "TENT4B", "PubChem SID": "SID315486255", "TNF reporter z-score, replicate mean": "2.36 (active)", "z-score, median over gene's siRNAs": 1.13}
{"target gene": "TENT4B", "PubChem SID": "SID315486256", "TNF reporter z-score, replicate mean": "1.58 (active)", "z-score, median over gene's siRNAs": 1.13}
{"target gene": "TENT4B", "PubChem SID": "SID315486257", "TNF reporter z-score, replicate mean": 0.39, "z-score, median over gene's siRNAs": 1.13}
{"target gene": "TENT4B", "PubChem SID": "SID315486258", "TNF reporter z-score, replicate mean": 0.68, "z-score, median over gene's siRNAs": 1.13}
{"target gene": "TENT4B", "PubChem SID": "SID315486259", "TNF reporter z-score, replicate mean": -0.52, "z-score, median over gene's siRNAs": 1.13}
{"target gene": "TENT4B", "PubChem SID": "SID315486260", "TNF reporter z-score, replicate mean": "2.46 (active)", "z-score, median over gene's siRNAs": 1.13}

Just “TNF reporter z-score, replicate mean” (3 entries from above):
R3HDM1 [SID315485213] = 0.75
TENT4B [SID315486255] = 2.36 (active)
TENT4B [SID315486256] = 1.58 (active)
